No constants are given. Whether binding was seen depends on the method and setting. For some assays here: Binding seen in cells or lysates may run through a third protein. Some binding calls cover weakened binding; strength is not graded here.
Assays:
[1] = target: α-syt7-fl-FLAG (full-length synaptotagmin 7 α with a FLAG tag) (mouse) (UniProt Q9R0N7); test: co-IP; anti-FLAG antibody on Dynabeads, lysate of rat hippocampal neurons expressing α-syt7-fl-FLAG; 25 mM Tris-HCl pH 7.4, 100 mM NaCl, 1 mM EGTA, 5% glycerol, 1% Triton X-100; no cross-linkers; control rabbit IgG beads; immunoblot
[2] = target: Halo-tagged α-syt7cyto (cytoplasmic domain of synaptotagmin 7 α, immobilised on HaloLink resin) (mouse) (UniProt Q9R0N7); test: pull-down; Halo-tagged bait immobilised on HaloLink resin (7 μM bait), prey syt1-fl in DOPC proteoliposomes; 25 mM HEPES pH 7.4, 100 mM KCl, 0.2 mM EGTA or 1.2 mM Ca2+; 1 h at 25 °C; supernatants analysed by SDS-PAGE and Western blot; both purified

By UniProt entry, the sequences of proteins in these tests, tags left out. Where a name states a change or a piece, a line headed by the entry shows the natural chain unless it says otherwise. Chains listed by the source or under a name are the forms on record and can include a tag or linker. Residues count along the entry.
UniProt Q9R0N7: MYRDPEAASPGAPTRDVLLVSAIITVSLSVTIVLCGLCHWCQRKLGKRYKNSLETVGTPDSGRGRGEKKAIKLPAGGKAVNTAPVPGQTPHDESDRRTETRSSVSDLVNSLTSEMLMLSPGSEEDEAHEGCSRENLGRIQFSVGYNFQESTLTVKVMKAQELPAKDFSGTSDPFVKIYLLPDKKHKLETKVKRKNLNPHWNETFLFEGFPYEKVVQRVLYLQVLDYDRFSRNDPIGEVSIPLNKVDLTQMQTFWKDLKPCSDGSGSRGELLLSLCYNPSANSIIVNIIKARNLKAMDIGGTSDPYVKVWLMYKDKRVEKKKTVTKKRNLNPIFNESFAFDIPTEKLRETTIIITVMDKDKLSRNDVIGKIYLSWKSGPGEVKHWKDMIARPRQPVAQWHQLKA
Halo-tagged α-syt7cyto (cytoplasmic domain of synaptotagmin 7 α, immobilised on HaloLink resin): residues 38-403 of Q9R0N7

binding [1]	binding [2]	Molecule
binds		synaptotagmin 1 (endogenous, rat hippocampal neurons) (from UniProt P21707 1-421)
	binds	syt1-fl (full-length synaptotagmin 1, reconstituted into liposomes) (natural protein, rat, UniProt P21707 1-421, looked up, synaptotagmin 1, rat cDNA from T. C; Sudhof (Perin et al., 1990); the D374 mutation of that cDNA was corrected to glycine, so residue 374 is G; also called SUMO-syt1-fl; source: E. coli BL21(DE3), purified (with 0.9% CHAPS; cleaved from the beads with SUMO protease), reconstituted into DOPC proteoliposomes) MVSASHPEALAAPVTTVATLVPHNATEPASPGEGKEDAFSKLKQKFMNELHKIPLPPWALIAIAIVAVLLVVTCCFCVCKKCLFKKKNKKKGKEKGGKNAINMKDVKDLGKTMKDQALKDDDAETGLTDGEEKEEPKEEEKLGKLQYSLDYDFQNNQLLVGIIQAAELPALDMGGTSDPYVKVFLLPDKKKKFETKVHRKTLNPVFNEQFTFKVPYSELGGKTLVMAVYDFDRFSKHDIIGEFKVPMNTVDFGHVTEEWRDLQSAEKEEQEKLGDICFSLRYVPTAGKLTVVILEAKNLKKMDVGGLSDPYVKIHLMQNGKRLKKKKTTIKKNTLNPYYNESFSFEVPFEQIQKVQVVVTVLDYDKIGKNDAIGKVFVGYNSTGAELRHWSDMLANPRRPIAQWHTLQVEEEVDAMLAVKK
